Assay results as given in paper PMC10879544.
No constants are given. Whether binding was seen depends on the method and setting. Some entries that bind do so weakly or less than the wild type.

Chains of the proteins cited; added tags and fusions are not shown. Lines headed by an entry give the natural chain unless they say otherwise; changes in a name come on top. Residues count along the entry.
UniProt Q9Z2G6, residues 22-790: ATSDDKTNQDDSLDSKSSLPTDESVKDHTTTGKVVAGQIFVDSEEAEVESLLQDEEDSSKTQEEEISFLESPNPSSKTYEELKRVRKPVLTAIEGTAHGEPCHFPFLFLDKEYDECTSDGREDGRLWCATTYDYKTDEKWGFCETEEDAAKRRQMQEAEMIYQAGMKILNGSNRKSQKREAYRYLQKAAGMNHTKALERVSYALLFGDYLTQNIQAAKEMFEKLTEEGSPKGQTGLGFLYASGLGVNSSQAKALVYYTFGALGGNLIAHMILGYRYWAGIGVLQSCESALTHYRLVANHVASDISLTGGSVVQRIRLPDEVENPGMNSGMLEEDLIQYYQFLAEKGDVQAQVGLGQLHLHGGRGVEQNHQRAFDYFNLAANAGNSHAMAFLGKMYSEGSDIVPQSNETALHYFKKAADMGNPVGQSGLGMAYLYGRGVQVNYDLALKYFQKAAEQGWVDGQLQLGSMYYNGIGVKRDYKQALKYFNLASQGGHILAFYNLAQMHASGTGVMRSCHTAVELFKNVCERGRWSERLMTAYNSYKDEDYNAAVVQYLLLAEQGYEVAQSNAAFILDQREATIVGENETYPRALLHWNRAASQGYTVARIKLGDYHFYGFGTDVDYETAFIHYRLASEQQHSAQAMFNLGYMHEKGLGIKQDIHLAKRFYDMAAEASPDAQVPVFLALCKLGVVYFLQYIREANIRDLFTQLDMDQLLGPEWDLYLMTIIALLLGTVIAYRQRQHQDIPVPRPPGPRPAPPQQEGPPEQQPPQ
UniProt P02454: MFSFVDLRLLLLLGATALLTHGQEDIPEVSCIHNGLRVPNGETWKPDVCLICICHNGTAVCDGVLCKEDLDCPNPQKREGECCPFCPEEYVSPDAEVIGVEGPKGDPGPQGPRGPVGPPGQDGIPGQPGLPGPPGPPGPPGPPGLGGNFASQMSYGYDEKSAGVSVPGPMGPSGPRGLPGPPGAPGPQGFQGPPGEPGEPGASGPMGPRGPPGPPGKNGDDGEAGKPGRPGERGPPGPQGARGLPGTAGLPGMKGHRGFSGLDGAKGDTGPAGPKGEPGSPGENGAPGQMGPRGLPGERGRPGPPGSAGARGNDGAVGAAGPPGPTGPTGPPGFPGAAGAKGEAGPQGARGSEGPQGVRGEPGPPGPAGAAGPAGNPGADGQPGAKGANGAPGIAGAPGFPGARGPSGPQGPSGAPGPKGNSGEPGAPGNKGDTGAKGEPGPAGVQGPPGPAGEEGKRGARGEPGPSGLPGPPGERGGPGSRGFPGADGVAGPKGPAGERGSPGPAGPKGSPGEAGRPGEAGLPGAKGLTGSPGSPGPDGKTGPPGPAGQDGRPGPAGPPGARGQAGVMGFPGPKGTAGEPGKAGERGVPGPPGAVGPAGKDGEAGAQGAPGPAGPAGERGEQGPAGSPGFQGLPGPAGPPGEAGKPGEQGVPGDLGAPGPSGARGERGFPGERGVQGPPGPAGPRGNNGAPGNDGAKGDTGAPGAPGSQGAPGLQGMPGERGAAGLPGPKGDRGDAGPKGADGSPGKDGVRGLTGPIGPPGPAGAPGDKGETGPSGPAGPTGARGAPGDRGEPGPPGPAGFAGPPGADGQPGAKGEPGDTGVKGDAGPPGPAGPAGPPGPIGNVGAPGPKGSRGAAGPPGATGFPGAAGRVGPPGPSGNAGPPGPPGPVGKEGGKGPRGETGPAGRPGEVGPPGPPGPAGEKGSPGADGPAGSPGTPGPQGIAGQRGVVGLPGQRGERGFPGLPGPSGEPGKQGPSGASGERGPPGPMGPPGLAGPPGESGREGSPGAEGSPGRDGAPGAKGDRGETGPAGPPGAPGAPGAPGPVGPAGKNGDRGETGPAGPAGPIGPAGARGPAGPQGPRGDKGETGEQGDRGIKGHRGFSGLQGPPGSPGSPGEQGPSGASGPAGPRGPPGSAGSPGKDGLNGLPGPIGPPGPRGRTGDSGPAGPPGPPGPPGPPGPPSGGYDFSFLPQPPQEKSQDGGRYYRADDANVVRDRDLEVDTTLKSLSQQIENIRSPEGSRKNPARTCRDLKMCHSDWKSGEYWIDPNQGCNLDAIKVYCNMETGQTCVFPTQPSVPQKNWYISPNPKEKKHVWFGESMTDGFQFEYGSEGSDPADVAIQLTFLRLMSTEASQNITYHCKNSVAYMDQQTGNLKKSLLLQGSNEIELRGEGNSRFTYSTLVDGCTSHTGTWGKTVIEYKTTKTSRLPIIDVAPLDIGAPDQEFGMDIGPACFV

Assays:
[1] = target: WT SEL1L (full length murine SEL1L with C-terminal MYC and FLAG tags) (mouse) (UniProt Q9Z2G6); test: co-IP; WT or ΔFN2 SEL1L purified with anti-FLAG magnetic agarose (improved purity, not complete) incubated with rat tail collagen, then co-IP via anti-MYC; cell-free; both purified
[2] = target: WT SEL1L (full length murine SEL1L with C-terminal MYC and FLAG tags) (mouse) (UniProt Q9Z2G6); test: co-IP; WT or ΔFN2 SEL1L purified with Myc-trap agarose (purity not complete) incubated with rat tail collagen, then co-IP; cell-free; both purified

binding [1]: binds | binding [2]: binds
Substance: rat tail collagen (EMD Millipore) (from UniProt P02454 152-1207; P02466 86-1125) (complex)
